In patent publication US20110318474A1, “FOOD PRODUCTS ENRICHED WITH METHYLXANTHINES” (priority 2008, published 2011):

Experiments:
tasters (bitterness) = settings: cited from earlier work; for taste of theobromine spiked with compound: theobromine 3 mmol per litre, compound 2.2, 22.2 or 222 micromol per litre
[1] = system: trained panellists (bitterness perception); settings: 120 mg caffeine per 25 g milk chocolate, 25 trained panellists, 5% level of significance

| Compound | taste of theobromine spiked with compound (tasters (bitterness)) | further results |
| --- | --- | --- |
| Oc1cc(O)c2c(c1)O[C@@H](c1ccc(O)c(O)c1)[C@@H](O)C2 [(+)—epicatechin] | did not lead to decrease of bitterness |  |
| Oc1cc(O)c2c(c1)O[C@H](c1ccc(O)c(O)c1)[C@@H](O)C2 [(+)-catechin] | did not lead to decrease of bitterness |  |
| OC[C@H]1O[C@@H](c2c(O)cc(O)c3c2O[C@@H](c2ccc(O)c(O)c2)[C@H](O)C3)[C@H](O)[C@@H](O)[C@@H]1O [(−)-catechin-8-C-beta-D-glucopyranoside] | less bitter, softer and more pleasant taste |  |
| OC[C@H]1O[C@@H](c2c(O)cc(O)c3c2O[C@H](c2ccc(O)c(O)c2)[C@@H](O)C3)[C@H](O)[C@@H](O)[C@@H]1O [8-C-glucosylated catechin] |  | bitterness intensity of theobromine (tasters (bitterness); theobromine 600 ppm combined with about 10 ppm compound): not decreased |
| Cn1c(=O)c2c(ncn2C)n(C)c1=O [caffeine, 1,3,7-trimethylxanthine] |  | bitterness perception versus plain milk chocolate ([1]; study with cyclodextrin complex): more bitter than the plain milk chocolate; bitterness perception versus plain milk chocolate ([1]; study with tannic acid complex): more bitter than the other two samples |

Read-outs that look alike come from different tables or passages of the source.
